Measurements as given in the supplement of paper PMC5949888.
Most values lie at the floor of the assay. Slopes are relative: functional sequences can read slightly below zero.

system: Saccharomyces cerevisiae PS128 hsf1 delta, HSF1(1-493) fusion; assay: growth estimate (transactivation domain function in HSF1 fusion, heat-shock survival) (a.u. (slope of normalised read count over time)); higher = stronger growth at 37°C, i.e. more transactivation activity; details: library: random library
Experimental: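 Random 60-nt DNA library encoding peptides of up to 20 aa, fused to the C-terminus of yeast HSF1 residues 1-493 (C-terminal TAD deleted) and expressed from the native HSF1 promoter on a CEN plasmid in hsf1-deleted S. cerevisiae PS128. Cells were selected at 37°C on -trp 5-FOA plates for 0, 2, 4, 6 and 8 days and amplicons were sequenced. Growth estimate is the slope of a robust linear fit of total-sum-normalised read counts (normalised to the first time point) over time, using at least 2 replicates. Sequences are classed functional (TAD activity) above a threshold of -0.13, set from stop-codon control sequences.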

| Substance | growth estimate |
| --- | --- |
| GFR | < -0.25 |
| GFRKG | < -0.25 |
| GFRKNGLEQYVIALWLARGL | < -0.25 |
| GFRQIGGKCPDGSFDKCGIL | < -0.25 |
| GFRSESGIRGPVLPTTFAAT | < -0.25 |
| GFRSIGY | < -0.25 |
| GFSDRSISWTKPDDYVRRAI | < -0.25 |
| GFSICPFTRKRYLSLSIACF | < -0.25 |
| GFSLFE | < -0.25 |
| GFSRRIDCANRSSTRESRNQ | -0.246 |
| GFSWEAQLGR | < -0.25 |
| GFTYRPGV | < -0.25 |
| GFVLCMRVLPPTLLLTARQE | < -0.25 |
| GFVQSNRTMKVKAAGAWNTS | < -0.25 |
| GFWGP | < -0.25 |
| GGAMLLPTPGLREQTSAVIS | < -0.25 |
| GGASRGAIVKNIKAAVHPLH | < -0.25 |
| GGAYTRNYWECGQPT | < -0.25 |
| GGCDPVHGVSGP | < -0.25 |
| GGCLVAGSSYISSASNHGRT | < -0.25 |
| GGCYGGK | < -0.25 |
| GGDASKGSASS | < -0.25 |
| GGDPP | < -0.25 |
| GGEFAWAEHGRKPVYSLCHN | < -0.25 |

| Substance | growth estimate |
| --- | --- |
| GGERAVIRMLIPSNMSHNRR | -0.246 |
| GGERYVHVKTDC | < -0.25 |
| GGGACTSRTSSKHSSRLSHR | < -0.25 |
| GGGAFDQFSEQHCTSWREQF | < -0.25 |
| GGGAVWS | < -0.25 |
| GGGLVCGP | < -0.25 |
| GGGR | < -0.25 |
| GGGRNLYLEVHIGGRRFKVH | < -0.25 |
| GGGRSEFFASWGSDKRTLSK | < -0.25 |
| GGHRVGLAPSLERKALNTDV | < -0.25 |
| GGIGFFRGSSTNYDGRGTE | < -0.25 |
| GGILMKTSHDQQFNSSAGPH | < -0.25 |
| GGISILFQRDKLGTRVQKWP | < -0.25 |
| GGIYISLTGK | < -0.25 |
| GGKTVRHWKRPRGERVDAGR | < -0.25 |
| GGKVRKATREDELRYSIGLP | < -0.25 |
| GGLGSGLIGSGAFGG | < -0.25 |
| GGLGSVRGPAPKKRDALSR | < -0.25 |
| GGLKAFRRGFVTARFLQARQ | < -0.25 |
| GGLKTA | -0.237 |
| GGLSESLTRCPRLFRLRRKP | < -0.25 |
| GGLSWLTKRVAGWPGPISWQ | -0.246 |
| GGMS | < -0.25 |
| GGNENVR | < -0.25 |

| Substance | growth estimate |
| --- | --- |
| GGNPHRQISSPYRTLMAVRG | < -0.25 |
| GGNQNPLELKGLGEP | < -0.25 |
| GGPA | < -0.25 |
| GGPDVCCMARDARHQTLQSH | < -0.25 |
| GGPLIYIV | < -0.25 |
| GGPRFLLAPPAIGKQGGRTL | < -0.25 |
| GGPRVRAGYLSHVLE | < -0.25 |
| GGPWSYPTF | < -0.25 |
| GGQAATE | < -0.25 |
| GGQAGGPSWISRHECSKPCR | < -0.25 |
| GGQAPVHITRQLLPIS | < -0.25 |
| GGQK | < -0.25 |
| GGRAVDGGWCCGLN | < -0.25 |
| GGRDDRPPSYRGQVARSLGI | < -0.25 |
| GGRIKGWDESAPELLWIS | < -0.25 |
| GGRLRSTNALDPGNGLRLER | < -0.25 |
| GGRVGTCGGVNRVAEFPRQD | < -0.25 |
| GGRYGIGNVSTGSSGNC | < -0.25 |
| GGSRRHSYIFRYVRMRRKIV | < -0.25 |
| GGSSWCGVYESACRTLQQHP | < -0.25 |
| GGSVGKPKNQER | < -0.25 |
| GGTGVWAAFRSEDASNVGFG | < -0.25 |
| GGTHIATKMC | < -0.25 |
| GGTV | < -0.25 |

| Substance | growth estimate |
| --- | --- |
| GGVAHREAKGVDEFMRVCAV | < -0.25 |
| GGVCCLRCSLSGLPNRPDGH | < -0.25 |
| GGVHIFFRSLLATCPR | -0.245 |
| GGVHLEI | < -0.25 |
| GGVLLGPIYDIGRNESHTIP | -0.0076 |
| GGVNKTQAIARSGTA | < -0.25 |
| GGVSFVKQSTFPLKHCWDVG | < -0.25 |
| GGVYSPFGNGLFYHNYSLLS | < -0.25 |
| GGWPLTSGSQ | < -0.25 |
| GGWTTELLYEVQRQGFGSGR | < -0.25 |
| GGYPRYFWASCP | < -0.25 |
| GHDAIALEALKSPVIRLNAC | < -0.25 |
| GHDKE | < -0.25 |
| GHGNVSGGTLNHASAGGGRM | < -0.25 |
| GHHALS | < -0.25 |
| GHIATTRRRQDYVPCSKESF | < -0.25 |
| GHIKGVLCTV | < -0.25 |
| GHKHHGIRRRRLR | < -0.25 |
| GHLDRGARNYPNVRR | < -0.25 |
| GHLEIAFGGARLRASFSIYE | < -0.25 |
| GHMPGARCVTDVGWHRNPNL | < -0.25 |
| GHNERLGQHGPPIWMHVGSS | < -0.25 |
| GHPICGVYRNDFTC | < -0.25 |
| GHQ | < -0.25 |

| Substance | growth estimate |
| --- | --- |
| GHRLISYWETST | < -0.25 |
| GHRSLIGMFRAKPRSMGAGT | < -0.25 |
| GHSA | < -0.25 |
| GHSAS | < -0.25 |
| GHTIHQEENAIHAADQLFAP | < -0.25 |
| GHTTS | < -0.25 |
| GHVRDT | < -0.25 |
| GHYCFLG | < -0.25 |
| GIAPTEIFDKGVRDIRVFYG | < -0.25 |
| GIAV | < -0.25 |
| GICIR | < -0.25 |
| GICWISYRKAEAYIDFACVH | < -0.25 |
| GIELPVQKYGRVVRASYNAT | < -0.25 |
| GIELRADAPESGDHTSCTVG | < -0.25 |
| GIGGDVEACLRELVSHQAIA | < -0.25 |
| GIGHLLSVLLPGVRIRLRSG | < -0.25 |
| GIGISPRLL | < -0.25 |
| GIGRISNVGVPPDR | < -0.25 |
| GIGRLRLGSARERN | < -0.25 |
| GIGSRRGSPQPP | < -0.25 |
| GIGVGGDRVG | < -0.25 |
| GII | < -0.25 |
| GIIEEYAGDVNGRGQEGPLL | < -0.25 |
| GIIFWDFCTSTHVTINQKTE | < -0.25 |

No new results follow: entries from further up.

| Substance | growth estimate |
| --- | --- |
| GHTIHQEENAIHAADQLFAP | < -0.25 |
| GHTTS | < -0.25 |
| GHVRDT | < -0.25 |
| GHYCFLG | < -0.25 |
| GIAPTEIFDKGVRDIRVFYG | < -0.25 |
| GIAV | < -0.25 |
| GICIR | < -0.25 |

(list continues)

| Substance | growth estimate |
| --- | --- |
| GIIGE | < -0.25 |
| GIIKSNQSLEAAHRVTFGSD | < -0.25 |
| GIKIARTSIRVNLRSRCWQR | -0.235 |
| GIKIGLTIWLRGGDHYALPA | < -0.25 |
| GILDSCQGSPEL | < -0.25 |
| GILIPSGDLTP | < -0.25 |
| GILPFCNRIVALAQAKGRWV | < -0.25 |
| GILSLGLLPHFHIIDCSSFS | < -0.25 |
| GILSRLRAWSSQSIGTGGLI | < -0.25 |
| GILYVLG | < -0.25 |
| GIMPRQCRRATKAVQADHAS | < -0.25 |
| GININPAFVRPGFRGLRPEM | < -0.25 |
| GIPAKEASSLSRSAPTRNNP | < -0.25 |
| GIPHKVPMCLHSSPVPASRG | < -0.25 |
| GIQIHAFDAGQCN | < -0.25 |
| GIQRPEESTAPVPVGSGENW | < -0.25 |
| GIREVGPLGSAEAYSPLWGE | -0.227 |
| GIRIAIFAD | < -0.25 |
| GIRNRAGQPKLFCIASIWAM | < -0.25 |
| GIRVAQPIQGVMLPGRTWEH | < -0.25 |
| GIRVRRQ | < -0.25 |
| GISAFCKYIGWM | < -0.25 |
| GISFS | < -0.25 |
| GISGYVGVYGPSQALFARTR | < -0.25 |

| Substance | growth estimate |
| --- | --- |
| GISLTLTSESGILAK | < -0.25 |
| GISNAQVKWS | < -0.25 |
| GISPRCWGNGPRSACMKDRS | < -0.25 |
| GITAVSSRRCLSCGAFCPGR | < -0.25 |
| GITLSVRFWEGWRTSPSGTG | < -0.25 |
| GIVRTSTAVFFCLQPTASQG | < -0.25 |
| GIWRVLTDLGSTRSKGCQRV | < -0.25 |
| GIYILKLLIF | -0.112 |
| GIYRTSALRVSGNGNAPKTL | < -0.25 |
| GKCPNPR | < -0.25 |
| GKDGAANVTG | -0.243 |
| GKEGAVKQPILQQFEPLNSH | < -0.25 |
| GKFERYLQVVGHGNGPVTCL | < -0.25 |
| GKG | < -0.25 |
| GKGTESLWVGVGYLISP | < -0.25 |
| GKGTIRRIPDFCSLKATRVV | < -0.25 |
| GKGWSTEA | < -0.25 |
| GKHNSKVFPCNWSARTSGVH | < -0.25 |
| GKHVGDNTPFVIMWHGGVCQ | < -0.25 |
| GKIRPETD | < -0.25 |
| GKIRRRT | < -0.25 |
| GKITSPRAVSVPQFIYKSSP | < -0.25 |
| GKLFQVTSWIGQS | < -0.25 |
| GKLLTRGIRVLSVDNRGFRG | < -0.25 |

2 entries from above, bar-delimited.
Substance | growth estimate
GITAVSSRRCLSCGAFCPGR | < -0.25
GITLSVRFWEGWRTSPSGTG | < -0.25

Following part:

| Substance | growth estimate |
| --- | --- |
| GKLVASRGEAHLKGGLTWTT | < -0.25 |
| GKLVQPAQRHVGWHMSHQVW | < -0.25 |
| GKPKGGPSSW | < -0.25 |
| GKPPPNGSRDPAPEIVNARA | < -0.25 |
| GKRGSFCFTIRDRALVTGRR | < -0.25 |
| GKRLP | < -0.25 |
| GKRLVRR | < -0.25 |
| GKRTSFFTSKGGALFKGRRH | < -0.25 |
| GKSCDAGALDWARLKRSVNT | < -0.25 |
| GKSRGPSTSPPIRGSNSPHG | < -0.25 |
| GKT | < -0.25 |
| GKTGISGAPHASCDSNASHL | < -0.25 |
| GKVAGLRPRLAN | < -0.25 |
| GKVQGVVRTLAIVPGKVGGP | -0.203 |
| GKVTWQLSGEVAPHAGQASS | < -0.25 |
| GKYTANFRICYASWRDAQRR | < -0.25 |
| GLANETAGLQRVPRDYSMVA | < -0.25 |
| GLATTIIDGIIGNGQWMIPT | < -0.25 |
| GLAVSCGATRGFLNRGMVRG | < -0.25 |
| GLAVWA | < -0.25 |
| GLAYMEAVTLCAGNVASGFA | < -0.25 |

4 entries picked at random from the list so far:

| Substance | growth estimate |
| --- | --- |
| GIRNRAGQPKLFCIASIWAM | < -0.25 |
| GGGRSEFFASWGSDKRTLSK | < -0.25 |
| GKLFQVTSWIGQS | < -0.25 |
| GGVHLEI | < -0.25 |
